These are yes or no findings as the source states them, for the method shown. For part of these data: In cells and extracts the contact can be indirect. Some binding calls cover weakened binding; strength is not graded here. For part of these data: Where a sequence is shown, tags or fusion partners need not be part of it.
Legend:
[1] = biological target: T1, human ISD11, full length, no tag (human, UniProt Q9HD34 1-91); experiment: crystal structure; (NIAU)2 (purified with EDTA, 3.15 Å) and (NIAU-Zn)2 (without EDTA, 3.3 Å) complexes; 0.1 M MES pH 7.0, 15% PEG-3350; both purified
T1 construct: human ISD11 (LYRM4), full length, plasmid pZM4; also called LYRM4; I of (NIA)2 and (NIAU)2; source: E. coli One Shot BL21 Star (DE3), co-expressed with NFS1, co-purified (Ni-NTA)

Amino acid sequences for entries named in this document (tags omitted). A change or cut given only in a name is not applied to a line headed by its entry. Residues count along the entry.
UniProt Q9HD34: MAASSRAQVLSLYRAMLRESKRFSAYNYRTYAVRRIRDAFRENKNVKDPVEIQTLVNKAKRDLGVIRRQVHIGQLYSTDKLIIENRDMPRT
UniProt Q9Y697, residues 56-457: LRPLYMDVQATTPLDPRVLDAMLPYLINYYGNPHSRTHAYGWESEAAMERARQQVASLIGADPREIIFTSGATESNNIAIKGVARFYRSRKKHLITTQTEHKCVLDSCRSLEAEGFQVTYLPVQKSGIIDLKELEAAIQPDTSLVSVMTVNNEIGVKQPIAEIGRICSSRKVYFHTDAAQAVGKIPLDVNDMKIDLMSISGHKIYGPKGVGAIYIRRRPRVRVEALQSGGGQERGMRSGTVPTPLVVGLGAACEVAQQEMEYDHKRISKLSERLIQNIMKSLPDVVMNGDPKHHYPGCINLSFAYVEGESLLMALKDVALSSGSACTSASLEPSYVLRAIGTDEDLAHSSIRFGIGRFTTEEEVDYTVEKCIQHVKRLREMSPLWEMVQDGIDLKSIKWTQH

[2] = biological target: T1, human ISD11, full length, no tag; experiment: crystal structure; (NIA)2 complex, 2.75 Å, space group R32; crystals from 100 mM MES pH 6.5, 0.3 M ammonium acetate, 20 mM calcium acetate, 20 mM CaCl2, 19% isopropanol, 12 °C; both purified
[3] = biological target: T2, S. cerevisiae Isd11-FLAG K17F/K21F (S. cerevisiae) (UniProt Q6Q560); experiment: co-IP; anti-FLAG (FLAG-M2 Sepharose) precipitation of Isd11-FLAG from lysates of mitochondria of Isd11-depleted Gal-ISD11 yeast expressing Acp1-HA; 10 mM Tris-HCl pH 7.4, 150 mM NaCl, 0.1 mM DTT, 10% glycerol, 0.2% Triton-X100, 4 °C; immunostaining
T2 sequence: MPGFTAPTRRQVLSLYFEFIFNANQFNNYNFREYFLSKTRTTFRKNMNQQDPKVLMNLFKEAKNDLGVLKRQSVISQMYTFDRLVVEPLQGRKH

[4] = biological target: T3, S. cerevisiae Isd11-FLAG V12Q/L55Q (S. cerevisiae) (UniProt Q6Q560); experiment: as above
T3 sequence: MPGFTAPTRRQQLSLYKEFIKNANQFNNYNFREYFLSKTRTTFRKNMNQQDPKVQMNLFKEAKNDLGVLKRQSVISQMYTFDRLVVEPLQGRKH

[5] = biological target: T4, S. cerevisiae Isd11-FLAG, wild type (S. cerevisiae) (UniProt Q6Q560); experiment: as above
T4 sequence: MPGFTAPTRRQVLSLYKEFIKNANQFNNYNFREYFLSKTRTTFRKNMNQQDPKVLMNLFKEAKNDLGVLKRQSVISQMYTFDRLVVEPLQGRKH

[6] = biological target: T5, S. cerevisiae Isd11-FLAG Y34W/K38A/V68D (S. cerevisiae) (UniProt Q6Q560); experiment: as above
T5 sequence: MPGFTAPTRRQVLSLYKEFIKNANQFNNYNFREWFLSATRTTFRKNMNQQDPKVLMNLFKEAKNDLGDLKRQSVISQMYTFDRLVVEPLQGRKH

[7] = biological target: T2, S. cerevisiae Isd11-FLAG K17F/K21F (S. cerevisiae); experiment: native gel or EMSA; blue-native gel electrophoresis (7.5-20% polyacrylamide) of mitochondrial extracts; immunostaining against FLAG of Isd11-FLAG
[8] = biological target: T3, S. cerevisiae Isd11-FLAG V12Q/L55Q (S. cerevisiae); experiment: as above
[9] = biological target: T4, S. cerevisiae Isd11-FLAG, wild type (S. cerevisiae); experiment: as above
[10] = biological target: T5, S. cerevisiae Isd11-FLAG Y34W/K38A/V68D (S. cerevisiae); experiment: as above

Measured: binding

human NFS1 residues 56-457 without tag (from UniProt Q9Y697 56-457) (enzyme)
binds: [1]

human NFS1 residues 56-457 (Δ1-55) with N-terminal His6-tag (from UniProt Q9Y697 56-457) (enzyme)
binds: [2]

B1: S. cerevisiae Nfs1 (enzyme, UniProt P25374 37-497)
chain: PAAGVKLDDNFSLETHTDIQAAAKAQASARASASGTTPDAVVASGSTAMSHAYQENTGFGTRPIYLDMQATTPTDPRVLDTMLKFYTGLYGNPHSNTHSYGWETNTAVENARAHVAKMINADPKEIIFTSGATESNNMVLKGVPRFYKKTKKHIITTRTEHKCVLEAARAMMKEGFEVTFLNVDDQGLIDLKELEDAIRPDTCLVSVMAVNNEIGVIQPIKEIGAICRKNKIYFHTDAAQAYGKIHIDVNEMNIDLLSISSHKIYGPKGIGAIYVRRRPRVRLEPLLSGGGQERGLRSGTLAPPLVAGFGEAARLMKKEFDNDQAHIKRLSDKLVKGLLSAEHTTLNGSPDHRYPGCVNVSFAYVEGESLLMALRDIALSSGSACTSASLEPSYVLHALGKDDALAHSSIRFGIGRFSTEEEVDYVVKAVSDRVKFLRELSPLWEMVQEGIDLNSIKWSGH
not listed: [1] | [2]
binds: all other assays above

B2: S. cerevisiae Acp1-HA (protein, UniProt P32463 37-125)
chain: SANLSKDQVSQRVIDVIKAFDKNSPNIANKQISSDTQFHKDLGLDSLDTVELLVAIEEEFDIEIPDKVADELRSVGETVDYIASNPDAN
binds: [3] | [4] | [5] | [6]

B3: S. cerevisiae Isu1 (protein, UniProt Q03020 28-165)
chain: SSITKRLYHPKVIEHYTHPRNVGSLDKKLPNVGTGLVGAPACGDVMRLQIKVNDSTGVIEDVKFKTFGCGSAIASSSYMTELVQGMTLDDAAKIKNTEIAKELSLPPVKLHCSMLAEDAIKAAIKDYKSKRNTPTMLS
binds: [3] | [4] | [5] | [6]
